The test concerns the target Mycoplasma fermentans DnaK-V5-His (Mycoplasma fermentans). Description: affinity purification with mass spectrometry.

These are yes or no findings as the source states them, for the method shown. Binding seen in cells or lysates may run through a third protein. Here binding means that the protein was enriched with, or labelled near, the bait; the list need not be complete.

B1: protein disulfide isomerase family A member 6 (protein, UniProt Q15084 20-440)
chain: LYSSSDDVIELTPSNFNREVIQSDSLWLVEFYAPWCGHCQRLTPEWKKAATALKDVVKVGAVDADKHHSLGGQYGVQGFPTIKIFGSNKNRPEDYQGGRTGEAIVDAALSALRQLVKDRLGGRSGGYSSGKQGRSDSSSKKDVIELTDDSFDKNVLDSEDVWMVEFYAPWCGHCKNLEPEWAAAASEVKEQTKGKVKLAAVDATVNQVLASRYGIRGFPTIKIFQKGESPVDYDGGRTRSDIVSRALDLFSDNAPPPELLEIINEDIAKRTCEEHQLCVVAVLPHILDTGAAGRNSYLEVLLKLADKYKKKMWGWLWTEAGAQSELETALGIGGFGYPAMAAINARKMKFALLKGSFSEQGINEFLRELSFGRGSTAPVGGGAFPTIVEREPWDGRDGELPVEDDIDLSDVELDDLGKDEL
Regarding B1, the binding entry was “binds”.

B2: DNA ligase 3 (protein, UniProt P49916 43-1009)
chain: LLHGHPLFLRRKPVLSFQGSHLRSRATYLVFLPGLHVGLCSGPCEMAEQRFCVDYAKRGTAGCKKCKEKIVKGVCRIGKVVPNPFSESGGDMKEWYHIKCMFEKLERARATTKKIEDLTELEGWEELEDNEKEQITQHIADLSSKAAGTPKKKAVVQAKLTTTGQVTSPVKGASFVTSTNPRKFSGFSAKPNNSGEAPSSPTPKRSLSSSKCDPRHKDCLLREFRKLCAMVADNPSYNTKTQIIQDFLRKGSAGDGFHGDVYLTVKLLLPGVIKTVYNLNDKQIVKLFSRIFNCNPDDMARDLEQGDVSETIRVFFEQSKSFPPAAKSLLTIQEVDEFLLRLSKLTKEDEQQQALQDIASRCTANDLKCIIRLIKHDLKMNSGAKHVLDALDPNAYEAFKASRNLQDVVERVLHNAQEVEKEPGQRRALSVQASLMTPVQPMLAEACKSVEYAMKKCPNGMFSEIKYDGERVQVHKNGDHFSYFSRSLKPVLPHKVAHFKDYIPQAFPGGHSMILDSEVLLIDNKTGKPLPFGTLGVHKKAAFQDANVCLFVFDCIYFNDVSLMDRPLCERRKFLHDNMVEIPNRIMFSEMKRVTKALDLADMITRVIQEGLEGLVLKDVKGTYEPGKRHWLKVKKDYLNEGAMADTADLVVLGAFYGQGSKGGMMSIFLMGCYDPGSQKWCTVTKCAGGHDDATLARLQNELDMVKISKDPSKIPSWLKVNKIYYPDFIVPDPKKAAVWEITGAEFSKSEAHTADGISIRFPRCTRIRDDKDWKSATNLPQLKELYQLSKEKADFTVVAGDEGSSTTGGSSEENKGPSGSAVSRKAPSKPSASTKKAEGKLSNSNSKDGNMQTAKPSAMKVGEKLATKSSPVKVGEKRKAADETLCQTKVLLDIFTGVRLYLPPSTPDFSRLRRYFVAFDGDLVQEFDMTSATHVLGSRDKNPAAQQVSPEWIWACIRKRRLVAPC
As for B2, the binding entry is “binds”.

Values taken from publication PMC9651203.
